Results taken from PubChem BioAssay AID1439 (NMMLSC, 2008).
About 770 (0.35%) of roughly 220,000 compounds were called active. The inconclusive results got no clear call from the source; some entries with a clear call stand among them for comparison. Rule as the data show it: active = binding response below about 49% or above about 150%; inconclusive = no clear call, values can overlap the other calls; inactive = in between.

Chains of the proteins cited; added tags and fusions are not shown.
UniProt P09471, whole entry, looked up: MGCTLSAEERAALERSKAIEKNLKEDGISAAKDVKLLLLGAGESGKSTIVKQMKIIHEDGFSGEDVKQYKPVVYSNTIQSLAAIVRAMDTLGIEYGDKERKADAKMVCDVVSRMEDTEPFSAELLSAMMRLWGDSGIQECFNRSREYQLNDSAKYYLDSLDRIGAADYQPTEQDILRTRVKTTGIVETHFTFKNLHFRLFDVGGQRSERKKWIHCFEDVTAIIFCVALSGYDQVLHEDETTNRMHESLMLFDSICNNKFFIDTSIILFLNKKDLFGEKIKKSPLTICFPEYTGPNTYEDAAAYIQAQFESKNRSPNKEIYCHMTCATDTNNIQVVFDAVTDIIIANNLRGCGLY

Each compound was assayed against Guanine nucleotide-binding protein G(o) subunit alpha (Homo sapiens) (UniProt P09471) (assay: RGS7-Galphao binding modulators, primary screen, biochemical, multiplexed bead flow cytometry (AID 1439;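 also: fluorescent Galphao held in activated GDP-AlF4 state binding bead-coupled RGS7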)). Details: at 10 µM, actives lie on both sides.
With `COc1ccc(C(=O)Nc2ccc3oc(Cc4ccc(Cl)cc4)nc3c2)cc1OC` the binding response (% of control) was inactive: 103%.
With `NC(=O)c1cccnc1Oc1ccc(Cl)cc1` the binding response (% of control) was inconclusive: 79%.
For `COc1cc2sc(C)nc2cc1C`, the binding response (% of control) was inconclusive: 117%.
With `Cc1nc(-c2ccc(S(=O)(=O)N3CCN(C(c4ccccc4)c4ccccc4)CC3)s2)cs1` the binding response (% of control) was inconclusive: 99%.
In the case of `O=C(O)c1cccc(Oc2ncnc3sc4c(c23)CCCC4)c1`, the binding response (% of control) is reported as inconclusive: 103%.
`Cc1ccc(CN2CCN(Cc3nc4ccccc4nc3C)CC2CCO)cc1` (stereo unspecified) was tested, and the binding response (% of control) was inconclusive: 85.7%.
With `Cc1c(CC(=O)Nc2ccc(Cl)cc2)sc2ccc(Cl)cc12` the binding response (% of control) was inconclusive: 86.5%.
In the case of `CCOC(=O)C1CCN(S(=O)(=O)c2ccc(Cl)nc2)CC1`, the binding response (% of control) is reported as inconclusive: 96.7%.
For `O=C(/C=C/c1ccc(-c2cccc([N+](=O)[O-])c2)o1)N1CCOCC1`, the binding response (% of control) was inconclusive: 90.9%.
`O=C(CS)Nc1ccc2ccccc2c1` was tested, and the binding response (% of control) was inconclusive: 89.7%.
With `CC1(C)CC(=O)C(C2C3=C(CC(C)(C)CC3=O)OC3=C2C(=O)CC(C)(C)C3)=C(O)C1` the binding response (% of control) was inconclusive: 101%.
In the case of `COc1ccc(NC2c3ccccc3C(=O)N2Cc2ccccc2Cl)cc1OC` (stereo unspecified), the binding response (% of control) is reported as inconclusive: 99.8%.
`CCCc1c(O)nc(SCc2ccccc2)[nH]c1=O` was tested, and the binding response (% of control) was inactive: 103%.
`Cc1nn(Cc2ccccc2)c(Cl)c1C(=O)NCc1ccco1` was tested, and the binding response (% of control) was inconclusive: 104%.
In the case of `Cc1sc2nc(CSc3n[nH]c(N)n3)[nH]c(=O)c2c1C`, the binding response (% of control) is reported as inconclusive: 115%.
With `S=C1SCN(Cc2ccco2)CN1Cc1ccco1` the binding response (% of control) was inconclusive: 123%.
With `CN(C)CCNC(=O)c1onc(CSc2ccc(F)cc2)c1C(=O)NCCN(C)C` the binding response (% of control) was inconclusive: 83.3%.
`NC(=O)c1ccc(NC(=O)CCCc2nc(-c3ccccc3Cl)no2)cc1` was tested, and the binding response (% of control) was inactive: 101%.
For `FC(F)(F)c1nc(NCC2CCCO2)c2nnn(Cc3ccccc3Cl)c2n1` (stereo unspecified), the binding response (% of control) was inconclusive: 97.3%.
In the case of `CC(C(=O)Nc1ccc(F)c(F)c1F)N(C)CC(=O)Nc1ccccc1Br` (stereo unspecified), the binding response (% of control) is reported as inactive: 100%.
`CCn1c(=O)c2cc(C(=O)NC(C)C)sc2c2ccccc21` was tested, and the binding response (% of control) was inconclusive: 89.8%.
`COc1cccc(SCc2noc(C(=O)NCc3ccccc3)c2C(=O)NCc2ccccc2)c1` was tested, and the binding response (% of control) was inconclusive: 103%.
For `Nn1c(SCC(=O)Nc2nccs2)nncc1=O`, the binding response (% of control) was inactive: 102%.
For `NS(=O)(=O)c1ccc(NC(=O)Cc2c(F)cccc2Cl)cc1`, the binding response (% of control) was inactive: 99.8%.
With `COC(=O)[C@@H]1C[C@H]2CC[C@H](O)C[C@H]2N1Cc1ccccc1OS(=O)(=O)c1ccc(C)cc1` the binding response (% of control) was inconclusive: 104%.
In the case of `Cc1ccc(N2C(=O)CC(NNc3nc4ccccc4s3)C2=O)cc1` (stereo unspecified), the binding response (% of control) is reported as active: 33.1%.
